Series [1] in a line: Fraction unbound in Wistar Han rat brain homogenates at 1 uM after 6 hrs by equilibrium dialysis method. Conditions: brain homogenate. (In equilibrium dialysis only unbound substance equilibrates across the membrane.)
Series [2] is described as follows: Fraction unbound in human occipital cortex at 1 uM after 6 hrs by equilibrium dialysis method.
A short description of series [3]: Fraction unbound in Hartley guinea pig brain homogenates at 1 uM after 6 hrs by equilibrium dialysis method. Conditions: brain homogenate.
The nature of series [4]: Fraction unbound in CD-1 mouse brain homogenates at 1 uM after 6 hrs by equilibrium dialysis method. The settings on record: brain homogenate.

As to `COc1cc2c(cc1OC)C(=O)C(CC1CCN(Cc3ccccc3)CC1)C2` (configuration not stated) [DONEPEZIL], the fraction unbound (as a rule, free concentration divided by total concentration) at 6 h, 1 µM was determined as 0.111 in series [1], 0.113 in series [2] and 0.082 in series [3].

`Nc1nc2ccc(OC(F)(F)F)cc2s1` [RILUZOLE]: the fraction unbound at 6 h, 1 µM in series [1] was 0.011; in series [4] it was 0.012; in series [2] it was 0.012; in series [3], 0.011.

For the origin of these results see ChEMBL document CHEMBL3525956, “Species independence in brain tissue binding using brain homogenates” (Drug Metab Dispos, 2011).
